The values below come from US7375083B2 (Shire LLC, priority 2003, dated 2008).

A short description of this data set: peptide synthesis.

For the substance “Boc-Gly-Gly-Gly-Gly-Leu[SEQ ID NO: 1]-Hydrocodone”, the step yield (coupling step) was 37%.
“Gly-Gly-Gly-Gly-Leu[SEQ ID NO: 1]-Hydrocodone” returned a step yield (late stage modification step) of 97%.
